At least one compound was matched to its structure with a doubt left.
Assays:
[1] = tested on: MOLM-13 and MV4;11 cells with TP53 and BAX KOs; assay: Small molecule inhibitor panel screen, changes common to modified MOLM-13 and MV4;11 cells; assay type: cell-based, Human; settings: for sensitivity to FLT3 inhibitors: TP53 inactivated MV4;11 and MOLM-13 cells; for change in sensitivity between BAX-inactivated MV4;11 and MOLM-13 cells: also overlapped in TP53 inactivated cells
Description: Small-molecule inhibitors, purchased from LC Laboratories (Woburn, Mass., USA) and Selleck Chemicals (Houston, Tex., USA), were reconstituted in DMSO and stored at −80° C. Inc. Inhibitors were distributed into 384-well plates prepared with a single agent/well in a 7-point concentration series ranging from 10 μM to 0.04 μM for each drug. […] After three days of culture at 37° C. in 5% CO2, MTS reagent (CellTiter96 AQueous One; Promega Madison, Wis., USA) was added, optical density was measured at 490 nm, raw absorbance values were adjusted to a reference blank value, and then used to determine cell viability (normalized to untreated control wells). Prizm software(GraphPad) was used to perform non-linear regression analyses on normalized values for the determination of IC50.
FIG. 7A. MOLM-13 and MV4;11 cells, transduced with indicated sgRNAs/Cas9 viruses, were screened with a panel of inhibitors targeting various molecular pathways and assessed using the cell survival method described in FIG. 2A.
FIG. 7B. Analyses of FLT3 inhibitor sensitivities, in MOLM-13 and MV4;11 parental and Crispr-modified cells, as indicated. Drug sensitivity was measured as described in FIG. 2A, with IC50 measured in triplicate.

CLL patients = settings: venetoclax therapy for CLL; cited from earlier work
THP-1 = assay: Drug sensitivity of TP53-mutant leukemia cell line THP-1; assay type: cell-based, Human; settings: cell line harboring TP53 mutations
KG1 = assay: Drug sensitivity of TP53-mutant leukemia cell line KG1; assay type: cell-based, Human; settings: cell line harboring TP53 mutations
MAPK1/3 (ERK1/2) = assay: Western blot of phosphorylated ERK1/2 during venetoclax treatment; assay type: cell-based, Human; settings: MOLM-13 cells with inactivation of TP53 and BAX, 100 nM overnight
[2] = tested on: primary AML patient cells; assay: Ex vivo viability (MTS) drug sensitivity in primary AML patient samples (Beat AML); assay type: cell-based
Description: (§1) Small-molecule inhibitors, purchased from LC Laboratories (Woburn, Mass., USA) and Selleck Chemicals (Houston, Tex., USA), were reconstituted in DMSO and stored at −80° C. Inc. Inhibitors were distributed into 384-well plates prepared with a single agent/well in a 7-point concentration series ranging from 10 μM to 0.04 μM for each drug. The final concentration of DMSO was ≤1.1% in all wells. Cells were seeded into 384-well assay plates at 1,000 cells/well in RPMI-1640 media supplemented with fetal bovine serum (15%), L-glutamine, penicillin-streptomycin and antimycotic. After three days of culture at 37° C. in 5% CO2, MTS reagent (CellTiter96 AQueous One; Promega Madison, Wis., USA) was added, optical density was measured at 490 nm, raw absorbance values were adjusted to a reference blank value, and then used to determine cell viability (normalized to untreated control wells). Prizm software(GraphPad) was used to perform non-linear regression analyses on normalized values for the determination of IC50.
FIG. 3. Venetoclax sensitivity in AML patients inversely correlates with TP53 mutations and low expression of TP53 and BAX. 3A. Venetoclax (VEN) sensitivity in primary AML patient samples was measured in a viability assay across a concentration series ranging from 10 nM to 10 μM. AUC was determined for each sample and plotted relative to TP53 mutant status or TP53 expression levels. LE and HE denote lowest and highest quartile expression values, respectively. […] Within TP53 mutant groups, circles, triangles and square symbols denote loss of function (LOF), gain of function (GOF), and splice variants correspondingly. 3B. […]
FIG. 12. […] Histogram representing drug sensitivity, measured in primary AML patient cells ex vivo, in a viability MTS assay across a concentration series ranging from 10 nM to 10 μM, using 10,000 cells per well, in triplicates. […]

MOLM-13 cells [3] = assay: Annexin V staining (early apoptosis) by flow cytometry; assay type: cell-based, Human; settings: TP53 and BAX knockout cells, venetoclax 100 nM
MOLM-13 cells [4] = assay: Cell viability (MTS) drug sensitivity assay in MOLM-13 cells transduced with sgRNA/Cas9 viruses; assay type: cell-based, Human; settings: 14 days after transduction with individual sgRNAs (TP53, BAX, PMAIP1, TFDP1, others)
Description: as §1, with “Prizm software(GraphPad) was used to perform non-linear regression analyses on normalized values for the determination of IC50.” left out
FIG. 2. […] 10 days post transduction, venetoclax sensitivity was measured in triplicate by colorimetric MTS assay using a 7-point concentration range (4 nM to 10 μM). […] Histogram (log 2 scale) summarizing changes in venetoclax sensitivity in parental MOLM-13 (black shaded), parental MV4;11 cells (grey shaded) or cells transduced with indicated sgRNA/Cas9 viruses., IC50 values were calculated by non-linear regression analyses in the cell viability assay described in panel A. FIG. 2D. […]

MOLM-13 cells [5] = assay: Mitochondrial membrane potential (JC-1); assay type: cell-based, Human
Description: Membrane depolarization was induced with CCCP. Cells were treated with 100 nM venetoclax or DMSO and with or without CCCP for 2 hrs prior to addition of the dye and flow cytometry.
FIG. 5. […] Histogram of a representative mitophagy experiment (n=2). […] FIG. 5B. […] FIGS. 5C, 5D. […] FIG. 5E. […] FIG. 5F. Cell viability assay in response to elesclomol.

MV4;11 cells = assay: Cell viability (MTS) drug sensitivity assay in MV4;11 cells transduced with sgRNA/Cas9 viruses; assay type: cell-based, Human; settings: screen concentration 1 μM venetoclax

Compound: CCc1nc(C(N)=O)c(Nc2ccc(N3CCC(N4CCN(C)CC4)CC3)c(OC)c2)nc1NC1CCOCC1 [gilteritinib]
- sensitivity to FLT3 inhibitors [1]: loss of sensitivity

Compound: CC1(C)CCC(CN2CCN(c3ccc(C(=O)NS(=O)(=O)c4ccc(NCC5CCOCC5)c([N+](=O)[O-])c4)c(Oc4cnc5[nH]ccc5c4)c3)CC2)=C(c2ccc(Cl)cc2)C1 [venetoclax]
- complete response, share of patients (CLL patients): 20%
- durable responses, share of patients (CLL patients): 79%
- response to venetoclax, THP-1 (THP-1): resistance
- response to venetoclax, KG1 (KG1): resistance
- phosphorylation of MAPK1/3 (ERK1/2) during drug treatment (MAPK1/3 (ERK1/2)): sustained phosphorylation
- venetoclax sensitivity (AUC), TP53 mutant vs wild type samples ([2]; 17 samples with deleterious TP53 mutations vs 84 wild type, p<0.01): significant loss in drug sensitivity
- ex vivo drug sensitivity in AML patient cells with TP53 mutations ([2]; several patient specimens, 10 nM to 10 μM): low sensitivity
- venetoclax sensitivity, high TP53-expressing cases ([2]; vs TP53 mutant or low wild type TP53 expression): more sensitivity
- percent of Annexin V positive cells in response to venetoclax (MOLM-13 cells [3]): significant decrease in the number of cells undergoing apoptosis
- change in sensitivity between BAX-inactivated MV4;11 and MOLM-13 cells [1]: concordant changes
- change in drug sensitivity common to modified MOLM-13 and MV4;11 cells ([1]; TP53 and BAX KOs relative to non-targeting control): loss of venetoclax sensitivities
- venetoclax sensitivity after single sgRNA knockout (MOLM-13 cells [4]): loss of venetoclax sensitivity
- mitochondrial membrane depolarization (MOLM-13 cells [5]; control cells, 100 nM venetoclax): induced membrane depolarization
- membrane depolarization, interaction with CCCP (MOLM-13 cells [5]; mutant (TP53, BAX) cells): synergy with CCCP
- venetoclax IC50 after single guide inactivation of TP53 and BAX (MV4;11 cells): significantly exceeding initial drug concentrations used for the sgRNA screen

Compound: CCN(CCCOc1ccc2c(Nc3cc(CC(=O)Nc4cccc(F)c4)n[nH]3)ncnc2c1)CCOP(=O)(O)O [barasertib]
- change in sensitivity between BAX-inactivated MV4;11 and MOLM-13 cells [1]: concordant changes

Compound: CCN(CC)CCNC(=O)c1c(C)[nH]c(/C=C2\C(=O)Nc3ccc(F)cc32)c1C [sunitinib]
- sensitivity to FLT3 inhibitors [1]: loss of sensitivity

Reference: patent US12472175B2, “Methods of treating venetoclax-resistant acute myeloid leukemia” (OREGON HEALTH & SCIENCE UNIVERSITY, priority 2019, dated 2025)
